{"source": "paper PMC4398458", "about": "“Reversible Linkage of Two Distinct Small Molecule Inhibitors of Myc Generates a Dimeric Inhibitor with Improved Potency That Is Active in Myc Over-Expressing Cancer Cell Lines” (PLoS ONE, 2015)", "system": "c-Myc bHLH-LZ + Max", "test": "EMSA", "settings": "E07+N12 dimeric inhibitor, dose-dependent decrease of Myc:Max complex; EMSA: 100 mM KCl, 1 mM DTT, 1 mM EDTA, 50 mM Tris pH 7.4, 5 mM MgCl2, 0.002% NP40, 2% DMSO, room temperature; 200 ng Myc, 350 ng Max, 100 nM DNA, 10 ul; recombinant protein; label: none (SYBR Green stain)", "note": "For at least one entry, the source does not settle the construct or the ends of the probe. The comparison behind a weaker result is the experiment's own reference, which may not be listed here.", "data": [{"sequence": "GATCAGTTGACCACGTGGTCTGGG (double strand) [E-box oligonucleotide]", "values": [{"measurement": "binding result", "result": "binds more weakly"}]}]}
